We go through one molecule from PMC10869683, “Structure of recombinant formate dehydrogenase from Methylobacterium extorquens (MeFDH1)” (Scientific Reports, 2024).

Assay [1] deals with T1, Methylobacterium extorquens AM1 formate dehydrogenase 1 alpha subunit (MeFDH1-α), recombinant, His-tagged (Methylobacterium extorquens AM1) (UniProt C5ATT7).
T1 sequence: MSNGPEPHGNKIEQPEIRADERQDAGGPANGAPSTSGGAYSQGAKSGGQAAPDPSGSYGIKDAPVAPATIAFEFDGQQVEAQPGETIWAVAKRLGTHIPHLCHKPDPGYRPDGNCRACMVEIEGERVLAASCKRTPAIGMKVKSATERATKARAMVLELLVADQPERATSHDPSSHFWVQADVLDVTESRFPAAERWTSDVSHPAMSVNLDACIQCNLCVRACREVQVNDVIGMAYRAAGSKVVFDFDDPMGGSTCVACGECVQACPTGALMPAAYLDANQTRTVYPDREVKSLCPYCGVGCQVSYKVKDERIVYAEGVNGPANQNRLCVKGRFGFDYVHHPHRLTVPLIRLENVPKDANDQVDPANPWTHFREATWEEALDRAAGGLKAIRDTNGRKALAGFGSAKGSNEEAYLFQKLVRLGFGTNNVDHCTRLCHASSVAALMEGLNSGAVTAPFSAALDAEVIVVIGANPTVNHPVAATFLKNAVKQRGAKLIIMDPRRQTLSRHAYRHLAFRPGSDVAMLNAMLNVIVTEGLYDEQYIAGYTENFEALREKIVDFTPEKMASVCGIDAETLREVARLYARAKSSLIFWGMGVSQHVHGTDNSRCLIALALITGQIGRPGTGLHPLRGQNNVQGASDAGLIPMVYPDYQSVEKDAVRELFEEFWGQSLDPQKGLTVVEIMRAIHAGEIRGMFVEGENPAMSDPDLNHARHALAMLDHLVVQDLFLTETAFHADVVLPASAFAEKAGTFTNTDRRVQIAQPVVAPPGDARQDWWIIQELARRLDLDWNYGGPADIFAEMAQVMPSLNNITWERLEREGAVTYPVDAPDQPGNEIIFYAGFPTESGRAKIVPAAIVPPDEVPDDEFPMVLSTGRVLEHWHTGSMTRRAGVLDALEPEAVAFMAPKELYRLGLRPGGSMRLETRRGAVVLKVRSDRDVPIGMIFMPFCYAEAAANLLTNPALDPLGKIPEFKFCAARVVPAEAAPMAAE
As to the kind of experiment: cryo-EM structure; single-particle cryo-EM of purified MeFDH1 (0.5 mg/ml), Glacios 200 kV, Falcon 4; holoenzyme map at 2.83 Å; both purified.

The target in assay [2] is T1, Methylobacterium extorquens AM1 formate dehydrogenase 1 alpha subunit (MeFDH1-α), recombinant, His-tagged (Methylobacterium extorquens AM1). As to the kind of experiment: SEC-MALS; Superdex 200 10/300 GL pre-equilibrated with the final SEC buffer; 1 mg protein injected at 0.4 ml/min; co-purified MeFDH1 complex; both purified. Background: Size exclusion chromatography separates by hydrodynamic size, large species first.

Results are given in words; binding and its absence hold for the method and conditions named. Some results given as binding are weak or reduced against the parent protein; the word gives no strength. Sequences can lack the tags named with a protein.

B1: Methylobacterium extorquens AM1 formate dehydrogenase 1 beta subunit (MeFDH1-β), recombinant (enzyme, UniProt C5ATT6 1-572)
chain: MSEASGTVRSFAHPGRGRNVARAVPKGRQVDPHAKVEIEELLGTRPRQRDLLIEHLHLIQDTYGQISADHLAALADEMSLAFAEVFETATFYAHFDVVKEGEADIPRLTIRVCDSITCAMFGADELLETLQRELASDAVRVVRAPCVGLCDHAPAVEVGHNFLHRADLASVRAAVEAEDTHAHIPTYVDYDAYRAGGGYATLERLRSGELPVDDVLKVLDDGGLRGLGGAGFPTGRKWRSVRGEPGPRLMAVNGDEGEPGTFKDQLYLNTDPHRFLEGMLIGAHVVEAADVYIYLRDEYPISREILAREIAKLPEGGTRIHLRRGAGAYICGEESSLIESLEGKRGLPRHKPPFPFQVGLFNRPTLINNIETLFWVRDLIERGAEWWKSHGRNGRVGLRSYSVSGRVKEPGVKLAPAGLTIQELIDEYCGGISDGHSFAAYLPGGASGGILPASMNDIPLDFGTLEKYGCFIGSAAVVILSDQDDVRGAALNLMKFFEDESCGQCTPCRSGTQKARMLMENGVWDTDLLGELAQCMRDASICGLGQAASNPVSTVIKYFPDLFPEPRAVAAE
Consider B1, for which the binding result in assay [1] and in assay [2] was “binds” each time.
